Measurements from the supplement of paper PMC10849652.
The other results are listed elsewhere or left out.

Protein sequences, listed by entry. Tags and fused reporters are not part of them. Lines headed by an entry give the natural chain unless they say otherwise; changes in a name come on top.
UniProt Q96EU6: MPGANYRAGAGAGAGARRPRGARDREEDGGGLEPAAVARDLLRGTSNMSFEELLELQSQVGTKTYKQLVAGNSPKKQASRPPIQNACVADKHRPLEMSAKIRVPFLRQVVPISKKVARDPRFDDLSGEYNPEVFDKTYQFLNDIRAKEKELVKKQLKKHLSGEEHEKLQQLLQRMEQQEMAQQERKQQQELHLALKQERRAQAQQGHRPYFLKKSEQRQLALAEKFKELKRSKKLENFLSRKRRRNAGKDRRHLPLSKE
UniProt P28702: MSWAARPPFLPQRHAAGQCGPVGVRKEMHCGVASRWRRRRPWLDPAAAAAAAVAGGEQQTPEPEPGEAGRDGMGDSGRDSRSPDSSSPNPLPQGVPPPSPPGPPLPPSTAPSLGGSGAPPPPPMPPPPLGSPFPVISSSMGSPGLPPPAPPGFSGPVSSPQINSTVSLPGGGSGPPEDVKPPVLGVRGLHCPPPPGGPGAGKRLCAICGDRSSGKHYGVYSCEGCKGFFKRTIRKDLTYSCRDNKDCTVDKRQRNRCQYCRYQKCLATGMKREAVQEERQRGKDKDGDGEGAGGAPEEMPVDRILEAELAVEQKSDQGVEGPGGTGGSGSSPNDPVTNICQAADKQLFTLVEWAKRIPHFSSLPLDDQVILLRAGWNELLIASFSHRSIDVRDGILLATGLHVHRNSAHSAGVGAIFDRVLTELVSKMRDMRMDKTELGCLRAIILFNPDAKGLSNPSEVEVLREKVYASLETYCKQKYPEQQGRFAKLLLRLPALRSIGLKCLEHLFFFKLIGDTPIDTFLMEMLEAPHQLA
UniProt Q9HCY8: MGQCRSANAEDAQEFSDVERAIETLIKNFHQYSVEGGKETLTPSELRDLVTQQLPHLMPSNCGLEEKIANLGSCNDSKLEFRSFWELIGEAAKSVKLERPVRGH
UniProt Q9UBS0: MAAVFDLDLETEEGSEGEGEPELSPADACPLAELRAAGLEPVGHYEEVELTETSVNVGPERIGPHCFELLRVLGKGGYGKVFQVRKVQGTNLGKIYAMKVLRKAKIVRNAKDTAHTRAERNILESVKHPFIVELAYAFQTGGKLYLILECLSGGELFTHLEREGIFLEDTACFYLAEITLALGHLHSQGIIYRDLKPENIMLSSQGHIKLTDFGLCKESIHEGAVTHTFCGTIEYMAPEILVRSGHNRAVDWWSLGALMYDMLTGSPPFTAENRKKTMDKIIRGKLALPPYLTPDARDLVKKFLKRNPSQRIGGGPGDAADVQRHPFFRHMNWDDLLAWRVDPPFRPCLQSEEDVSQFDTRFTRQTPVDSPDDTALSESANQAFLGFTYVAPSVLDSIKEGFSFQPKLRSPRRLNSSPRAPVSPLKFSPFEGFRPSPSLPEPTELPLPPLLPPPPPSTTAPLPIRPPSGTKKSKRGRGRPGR
UniProt P51812, whole entry, looked up: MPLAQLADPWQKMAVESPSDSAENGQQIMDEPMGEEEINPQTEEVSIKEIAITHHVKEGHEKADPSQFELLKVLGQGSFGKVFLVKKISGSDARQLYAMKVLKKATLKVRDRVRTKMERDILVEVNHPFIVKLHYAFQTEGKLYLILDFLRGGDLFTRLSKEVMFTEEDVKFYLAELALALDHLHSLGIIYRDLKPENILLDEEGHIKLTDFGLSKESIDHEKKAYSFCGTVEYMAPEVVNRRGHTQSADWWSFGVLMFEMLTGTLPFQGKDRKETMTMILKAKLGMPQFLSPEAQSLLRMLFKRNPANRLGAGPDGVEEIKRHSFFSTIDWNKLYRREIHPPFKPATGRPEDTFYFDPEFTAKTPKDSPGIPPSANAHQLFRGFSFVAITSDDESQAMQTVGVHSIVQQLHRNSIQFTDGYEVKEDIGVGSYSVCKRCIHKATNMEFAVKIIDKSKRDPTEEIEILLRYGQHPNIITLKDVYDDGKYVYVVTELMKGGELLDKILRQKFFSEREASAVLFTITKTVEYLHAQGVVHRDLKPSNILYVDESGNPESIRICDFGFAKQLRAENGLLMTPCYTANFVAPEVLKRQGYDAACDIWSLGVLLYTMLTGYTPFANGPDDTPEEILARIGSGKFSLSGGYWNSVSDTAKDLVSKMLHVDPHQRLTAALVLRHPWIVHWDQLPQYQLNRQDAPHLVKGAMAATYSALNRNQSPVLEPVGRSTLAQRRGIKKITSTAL
UniProt P57060: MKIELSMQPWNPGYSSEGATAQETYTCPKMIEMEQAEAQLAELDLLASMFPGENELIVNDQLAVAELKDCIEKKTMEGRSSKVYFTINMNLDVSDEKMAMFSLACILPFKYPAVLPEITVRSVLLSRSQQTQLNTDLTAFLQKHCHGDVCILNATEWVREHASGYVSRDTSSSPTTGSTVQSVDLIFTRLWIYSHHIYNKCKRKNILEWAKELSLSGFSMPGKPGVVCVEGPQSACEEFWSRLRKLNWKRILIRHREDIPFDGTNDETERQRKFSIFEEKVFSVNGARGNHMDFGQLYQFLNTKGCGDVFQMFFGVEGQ
UniProt Q96FQ6: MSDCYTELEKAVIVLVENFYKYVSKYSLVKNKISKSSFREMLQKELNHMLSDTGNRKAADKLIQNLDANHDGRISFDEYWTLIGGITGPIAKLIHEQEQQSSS
UniProt Q9NYV6: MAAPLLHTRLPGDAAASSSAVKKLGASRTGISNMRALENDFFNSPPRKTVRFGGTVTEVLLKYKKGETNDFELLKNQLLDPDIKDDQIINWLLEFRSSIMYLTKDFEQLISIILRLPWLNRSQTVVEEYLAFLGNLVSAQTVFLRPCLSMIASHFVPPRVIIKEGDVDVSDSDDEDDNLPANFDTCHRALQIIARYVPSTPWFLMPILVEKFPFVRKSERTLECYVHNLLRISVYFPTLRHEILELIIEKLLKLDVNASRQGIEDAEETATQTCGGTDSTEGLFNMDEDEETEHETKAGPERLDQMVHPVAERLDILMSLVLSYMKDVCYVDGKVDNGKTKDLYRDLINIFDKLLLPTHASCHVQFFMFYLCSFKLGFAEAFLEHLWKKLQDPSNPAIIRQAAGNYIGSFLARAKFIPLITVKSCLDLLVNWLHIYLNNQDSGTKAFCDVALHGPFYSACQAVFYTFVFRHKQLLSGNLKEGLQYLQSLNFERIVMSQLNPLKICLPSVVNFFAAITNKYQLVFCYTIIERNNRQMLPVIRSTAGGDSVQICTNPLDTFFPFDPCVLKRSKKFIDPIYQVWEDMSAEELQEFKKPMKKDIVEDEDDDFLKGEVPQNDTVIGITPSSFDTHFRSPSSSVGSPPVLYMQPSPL
UniProt P60903, whole entry, looked up: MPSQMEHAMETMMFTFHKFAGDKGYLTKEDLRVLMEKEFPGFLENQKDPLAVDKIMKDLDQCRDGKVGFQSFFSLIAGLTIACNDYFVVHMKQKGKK
UniProt Q8WXA3: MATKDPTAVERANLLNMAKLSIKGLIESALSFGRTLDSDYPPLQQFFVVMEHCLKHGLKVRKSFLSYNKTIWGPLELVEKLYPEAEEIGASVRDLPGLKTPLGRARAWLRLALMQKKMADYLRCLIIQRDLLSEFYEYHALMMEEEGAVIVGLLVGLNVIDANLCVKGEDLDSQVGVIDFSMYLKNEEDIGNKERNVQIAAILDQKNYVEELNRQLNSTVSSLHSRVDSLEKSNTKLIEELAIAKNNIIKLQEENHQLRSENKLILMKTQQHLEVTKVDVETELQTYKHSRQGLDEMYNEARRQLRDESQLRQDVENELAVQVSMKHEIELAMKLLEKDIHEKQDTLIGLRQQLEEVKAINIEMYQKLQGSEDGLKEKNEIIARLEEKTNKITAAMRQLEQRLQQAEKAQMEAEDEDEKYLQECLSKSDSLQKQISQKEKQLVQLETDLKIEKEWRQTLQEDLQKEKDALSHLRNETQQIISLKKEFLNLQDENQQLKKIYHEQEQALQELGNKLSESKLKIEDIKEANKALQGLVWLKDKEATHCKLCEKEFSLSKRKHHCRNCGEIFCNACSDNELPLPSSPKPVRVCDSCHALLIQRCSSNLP
UniProt Q92681: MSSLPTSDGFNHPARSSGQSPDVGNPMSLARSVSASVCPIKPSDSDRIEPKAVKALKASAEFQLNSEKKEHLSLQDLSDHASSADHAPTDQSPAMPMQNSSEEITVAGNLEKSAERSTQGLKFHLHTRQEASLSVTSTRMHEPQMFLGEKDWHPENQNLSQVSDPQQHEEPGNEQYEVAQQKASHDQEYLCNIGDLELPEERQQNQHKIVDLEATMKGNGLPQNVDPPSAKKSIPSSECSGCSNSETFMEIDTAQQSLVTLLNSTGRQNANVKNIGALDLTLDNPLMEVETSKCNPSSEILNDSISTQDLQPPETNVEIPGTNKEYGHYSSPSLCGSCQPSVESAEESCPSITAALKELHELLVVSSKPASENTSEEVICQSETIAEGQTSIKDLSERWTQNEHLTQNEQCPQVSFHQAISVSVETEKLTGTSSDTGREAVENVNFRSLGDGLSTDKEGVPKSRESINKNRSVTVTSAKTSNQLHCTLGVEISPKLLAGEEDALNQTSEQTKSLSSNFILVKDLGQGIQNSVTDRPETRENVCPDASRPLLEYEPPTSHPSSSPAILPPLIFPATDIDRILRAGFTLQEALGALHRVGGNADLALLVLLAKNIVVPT
UniProt Q9P2E9: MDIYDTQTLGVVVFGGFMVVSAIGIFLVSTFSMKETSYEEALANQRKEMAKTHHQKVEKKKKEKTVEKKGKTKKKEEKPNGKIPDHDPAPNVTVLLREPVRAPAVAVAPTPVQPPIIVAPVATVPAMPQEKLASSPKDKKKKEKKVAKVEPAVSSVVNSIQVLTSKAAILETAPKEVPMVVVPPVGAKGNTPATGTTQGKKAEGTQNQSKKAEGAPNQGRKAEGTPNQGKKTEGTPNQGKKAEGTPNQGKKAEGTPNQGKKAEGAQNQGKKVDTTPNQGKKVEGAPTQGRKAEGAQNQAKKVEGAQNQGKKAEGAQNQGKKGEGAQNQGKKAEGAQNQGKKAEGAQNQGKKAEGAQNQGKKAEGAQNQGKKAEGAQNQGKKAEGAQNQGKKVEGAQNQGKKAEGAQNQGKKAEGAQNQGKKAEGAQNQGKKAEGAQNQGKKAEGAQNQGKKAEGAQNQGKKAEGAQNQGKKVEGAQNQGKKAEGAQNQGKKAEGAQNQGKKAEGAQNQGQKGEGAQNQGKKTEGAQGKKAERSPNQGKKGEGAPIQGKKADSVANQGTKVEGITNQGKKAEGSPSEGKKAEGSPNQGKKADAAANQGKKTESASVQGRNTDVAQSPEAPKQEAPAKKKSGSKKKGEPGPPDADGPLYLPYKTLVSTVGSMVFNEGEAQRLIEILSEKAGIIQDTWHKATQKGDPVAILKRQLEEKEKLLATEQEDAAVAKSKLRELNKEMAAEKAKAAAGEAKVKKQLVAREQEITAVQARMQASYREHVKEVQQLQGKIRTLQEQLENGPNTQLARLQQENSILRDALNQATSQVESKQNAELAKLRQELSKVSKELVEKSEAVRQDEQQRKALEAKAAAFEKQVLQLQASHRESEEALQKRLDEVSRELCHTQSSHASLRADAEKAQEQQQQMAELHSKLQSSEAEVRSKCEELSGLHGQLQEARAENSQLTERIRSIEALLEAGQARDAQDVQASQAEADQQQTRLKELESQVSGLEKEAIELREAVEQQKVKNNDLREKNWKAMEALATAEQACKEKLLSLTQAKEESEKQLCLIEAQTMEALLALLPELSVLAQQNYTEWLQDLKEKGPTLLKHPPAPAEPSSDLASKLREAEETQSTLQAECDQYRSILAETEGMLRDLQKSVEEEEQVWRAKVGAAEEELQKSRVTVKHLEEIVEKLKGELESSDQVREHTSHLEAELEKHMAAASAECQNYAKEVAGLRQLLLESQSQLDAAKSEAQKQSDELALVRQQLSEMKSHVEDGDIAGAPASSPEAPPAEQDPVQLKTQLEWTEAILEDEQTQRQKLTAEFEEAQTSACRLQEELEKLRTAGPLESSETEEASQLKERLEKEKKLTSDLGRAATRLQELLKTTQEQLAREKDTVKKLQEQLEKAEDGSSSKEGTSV
UniProt Q9Y3V2: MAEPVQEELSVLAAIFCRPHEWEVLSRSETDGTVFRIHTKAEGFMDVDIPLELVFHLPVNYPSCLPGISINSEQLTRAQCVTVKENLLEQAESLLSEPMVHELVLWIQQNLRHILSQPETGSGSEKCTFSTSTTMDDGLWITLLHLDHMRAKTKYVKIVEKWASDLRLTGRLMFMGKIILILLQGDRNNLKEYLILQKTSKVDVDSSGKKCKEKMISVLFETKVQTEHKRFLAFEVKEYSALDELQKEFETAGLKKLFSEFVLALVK
UniProt Q6P087: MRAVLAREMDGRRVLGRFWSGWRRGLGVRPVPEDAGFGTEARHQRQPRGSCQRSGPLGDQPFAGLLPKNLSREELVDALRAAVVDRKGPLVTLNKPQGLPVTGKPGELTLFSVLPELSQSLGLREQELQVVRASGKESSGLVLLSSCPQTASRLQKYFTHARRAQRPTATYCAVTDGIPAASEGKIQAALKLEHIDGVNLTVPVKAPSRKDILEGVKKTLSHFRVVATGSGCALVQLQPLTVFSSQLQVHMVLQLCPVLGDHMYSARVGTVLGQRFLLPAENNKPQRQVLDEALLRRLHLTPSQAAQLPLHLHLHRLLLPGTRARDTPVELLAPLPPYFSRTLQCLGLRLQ

Each target was assayed with CS(=O)(=O)CCNCc1ccc(-c2ccc3ncnc(Nc4ccc(OCc5cccc(F)c5)c(Cl)c4)c3c2)o1 [lapatinib] (assay: log2 fold change, soluble protein after heating vs DMSO (PISA); higher = thermal stabilisation; K562 lysate, 10 uM; active = over 0.2 and 3.5 SD of the protein, either way, in both replicates (recomputed)).
In short: (§1)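 Following dounce homogenisation of K562 pellets in PBS pH 7.4 with 1 mM MgCl2, crude extract at 1 mg/mL protein was incubated for 30 min with 10 μM compound. Aliquots were then heated for 3 min over 48°C-58°C and pooled, NP-40 was added to 0.5% at 4°C, and soluble protein was recovered as the supernatant at 21,000xg for 90 min. Channel-sum-equalised TMTpro 16plex LC-MS/MS quantified this protein. Each value, from duplicates, is a log-two fold change in thermal stability relative to solvent controls.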

Target	log2 fold change
RPS15, A0A0B4J2B4	inactive: -0.06
RPS19BP1 (UniProt Q86WX3)	inactive: 0.154
RPS7, A0A2R8Y623	inactive: 0.272
RXYLT1 (UniProt Q9Y2B1)	inactive: -0.028
RRP36 (UniProt Q96EU6)	inactive: -0.013
RXRB isoform 3 (UniProt P28702)	inactive: 0.085
S100A14 (UniProt Q9HCY8)	inactive: 0.15
RPS6KB2 (UniProt Q9UBS0)	inactive: 0.05
RPS6KA3 (UniProt P51812)	inactive: -0.089
RWDD2B (UniProt P57060)	inactive: 0.029
S100A16 (UniProt Q96FQ6)	inactive: 0.184
RRN3 (UniProt Q9NYV6)	inactive: -0.237

What follows are targets tested with CS(=O)(=O)N1CCN(Cc2cc3nc(-c4cccc5[nH]ncc45)nc(N4CCOCC4)c3s2)CC1 [pictilisib] in the same assay as above.
In short: as §1

Target	log2 fold change
RPS7, A0A2R8Y623	inactive: 0.373
RXRB isoform 3 (UniProt P28702)	inactive: -0.096
S100A14 (UniProt Q9HCY8)	inactive: 0.432
RPS6KA3 (UniProt P51812)	inactive: 0.223
RWDD2B (UniProt P57060)	inactive: -0.15
S100A16 (UniProt Q96FQ6)	inactive: 0.32
RUNDC1 (UniProt Q96C34)	inactive: -0.469
S100A10 (UniProt P60903)	inactive: 0.312
RUFY2 isoform 1 (UniProt Q8WXA3)	active: -0.533
RRN3 (UniProt Q9NYV6)	inactive: -0.126
RSC1A1 (UniProt Q92681)	inactive: 0.007
RRBP1 isoform 3 (UniProt Q9P2E9)	inactive: 0.029

Each target was assayed with C[C@@H](Oc1cc(-c2cnn(C3CCNCC3)c2)cnc1N)c1c(Cl)ccc(F)c1Cl [crizotinib] in the same assay as above.
In short: as §1

Target	log2 fold change
RTL8A (UniProt Q9BWD3)	inactive: -0.142
RPS19BP1 (UniProt Q86WX3)	inactive: -0.172
S100A7A (UniProt Q86SG5)	inactive: -0.034
RRP36 (UniProt Q96EU6)	inactive: -0.013
RPS19 (UniProt M0R2L9)	inactive: 0.091
RPS3 (UniProt E9PJN9)	inactive: -0.021
RXRB isoform 3 (UniProt P28702)	inactive: -0.011
RWDD3 (UniProt Q9Y3V2)	inactive: 0.259
RTL8C (UniProt A6ZKI3)	inactive: -0.003
RPS6KB2 (UniProt Q9UBS0)	inactive: -0.171
RPS6KA3 (UniProt P51812)	inactive: -0.012
RPUSD3 (UniProt Q6P087)	inactive: -0.142
RWDD2B (UniProt P57060)	inactive: 0.141
S100A16 (UniProt Q96FQ6)	inactive: -0.038
RUNDC1 (UniProt Q96C34)	inactive: -0.044
S100A10 (UniProt P60903)	inactive: 0.068
RUFY2 isoform 1 (UniProt Q8WXA3)	inactive: -0.015
RRN3 (UniProt Q9NYV6)	inactive: -0.1
RSC1A1 (UniProt Q92681)	inactive: 0.119
RRBP1 isoform 3 (UniProt Q9P2E9)	inactive: -0.054

What follows are targets tested with C[C@H](C1=CC=C(C=C1)C(=O)NC2=C3C=CNC3=NC=C2)N in the same assay as above.
In short: as §1

Target	log2 fold change
RTN4, A0A0U1RQR6	inactive: -0.236
RPSA (UniProt F8WD59)	inactive: -0.241
RXRB isoform 3 (UniProt P28702)	inactive: 0.046
RWDD3 (UniProt Q9Y3V2)	inactive: 0.142
RPUSD1 (UniProt Q9UJJ7)	inactive: 0.077
RPS6KB2 (UniProt Q9UBS0)	inactive: 0.236
RPS6KA3 (UniProt P51812)	inactive: -0.037
RPUSD3 (UniProt Q6P087)	inactive: 0.009
S100A16 (UniProt Q96FQ6)	inactive: 0.433
RUNDC1 (UniProt Q96C34)	inactive: -0.061
RUFY2 isoform 1 (UniProt Q8WXA3)	inactive: 0.116
RRN3 (UniProt Q9NYV6)	inactive: 0.058

What follows are targets tested with C[C@H](Nc1ncnc2nc[nH]c12)c1cc2cccc(Cl)c2c(=O)n1-c1ccccc1 [duvelisib] in the same assay as above.
In short: as §1

Target	log2 fold change
RPS7, A0A2R8Y623	inactive: -0.209
RXYLT1 (UniProt Q9Y2B1)	inactive: -0.146
RSRP1 (UniProt Q9BUV0)	inactive: -0.07
RRP36 (UniProt Q96EU6)	inactive: -0.053
RPS19 (UniProt M0R2L9)	inactive: -0.055
RPSA (UniProt F8WD59)	inactive: -0.11
RXRB isoform 3 (UniProt P28702)	inactive: -0.051
RWDD3 (UniProt Q9Y3V2)	inactive: 0.027
S100A14 (UniProt Q9HCY8)	inactive: -0.353
RTL8C (UniProt A6ZKI3)	inactive: 0.177
RPUSD1 (UniProt Q9UJJ7)	inactive: 0.053
RPS6KB2 (UniProt Q9UBS0)	inactive: 0.055
RPS6KA3 (UniProt P51812)	inactive: -0.016
RPUSD3 (UniProt Q6P087)	inactive: 0.006
RWDD2B (UniProt P57060)	inactive: -0.007
RUNDC1 (UniProt Q96C34)	inactive: -0.008
RTEL1 isoform 2 (UniProt Q9NZ71)	inactive: -0.101
S100A10 (UniProt P60903)	inactive: -0.067
RRN3 (UniProt Q9NYV6)	inactive: -0.004
RSC1A1 (UniProt Q92681)	inactive: 0.234
RRBP1 isoform 3 (UniProt Q9P2E9)	inactive: 0.018
